Results are given in words; binding and its absence hold for the method and conditions named. Where a sequence is shown, tags or fusion partners need not be part of it.
Experiments:
[1] = molecular target: T1, GST-Tom9.2 (cytosolic domain, aa 1-53) (Arabidopsis thaliana) (UniProt Q9FNC9); assay: pull-down
T1 sequence: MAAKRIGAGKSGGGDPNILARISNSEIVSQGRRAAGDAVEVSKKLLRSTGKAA

[2] = molecular target: T2, GST-OM64 (cytosolic domain, aa 488-586) (Arabidopsis thaliana) (UniProt F4KCL7); assay: pull-down
T2 sequence: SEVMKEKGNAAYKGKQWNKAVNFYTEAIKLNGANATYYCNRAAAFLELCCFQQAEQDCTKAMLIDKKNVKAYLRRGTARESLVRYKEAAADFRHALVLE

B1: His+SUMO-atDjA2 (protein, UniProt P42825 1-419)
chain: MFGRGPSRKSDNTKFYEILGVPKTAAPEDLKKAYKKAAIKNHPDKGGDPEKFKELAQAYEVLSDPEKREIYDQYGEDALKEGMGGGGGGHDPFDIFSSFFGSGGHPFGSHSRGRRQRRGEDVVHPLKVSLEDVYLGTTKKLSLSRKALCSKCNGKGSKSGASMKCGGCQGSGMKISIRQFGPGMMQQVQHACNDCKGTGETINDRDRCPQCKGEKVVSEKKVLEVNVEKGMQHNQKITFSGQADEAPDTVTGDIVFVIQQKEHPKFKRKGEDLFVEHTISLTEALCGFQFVLTHLDKRQLLIKSKPGEVVKPDSYKAISDEGMPIYQRPFMKGKLYIHFTVEFPESLSPDQTKAIEAVLPKPTKAAISDMEIDDCEETTLHDVNIEDEMKRKAQAQREAYDDDEEDHPGGAQRVQCAQQ
binding [1]: no binding

B2: His+SUMO-atDjA1 (protein, UniProt Q94AW8 1-420)
chain: MFGRGPSKKSDNTKFYEILGVPKSASPEDLKKAYKKAAIKNHPDKGGDPEKFKELAQAYEVLSDPEKREIYDQYGEDALKEGMGGGGGGHDPFDIFSSFFGGGPFGGNTSRQRRQRRGEDVVHPLKVSLEDVYLGTMKKLSLSRNALCSKCNGKGSKSGASLKCGGCQGSGMKVSIRQLGPGMIQQMQHACNECKGTGETINDRDRCPQCKGDKVIPEKKVLEVNVEKGMQHSQKITFEGQADEAPDTVTGDIVFVLQQKEHPKFKRKGEDLFVEHTLSLTEALCGFQFVLTHLDGRSLLIKSNPGEVVKPDSYKAISDEGMPIYQRPFMKGKLYIHFTVEFPDSLSPDQTKALEAVLPKPSTAQLSDMEIDECEETTLHDVNIEDEMRRKAQAQREAYDDDDEDDDHPGGAQRVQCAQQ
binding [2]: no binding
